Z-score data for 103 sequences are collected here from PubChem BioAssay AID1347423 (Functional Genomics Laboratory (NCATS/FGL), 2020).

The campaign covered roughly 52,000 sequences. About 210 (0.4%) were called active.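 How the source made its calls: active means gene whose silencing raises cell survival under the drug, median off-target-corrected z-score across its silencing RNAs 2 or more; inactive means the rest.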 This is one part of the list.

The assay is described as follows: Resistance to Poly (ADP-Ribose) Polymerase inhibitor: Gene Identification via Genome-wide siRNA Screen. The note with it: mouse BRCA2 R2336H ES cells, olaparib, CellTiter-Glo viability; active compounds read high. The method, boiled down: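 Mouse BRCA2 R2336H ES cells were reverse-transfected with siRNA (20 nM final), treated at 48 h with 500 nM olaparib, and read by CellTiter-Glo after 72 h. Scores: MAD-based z per siRNA, median per gene, seed off-target correction.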
For the sequence GGAAACCCAGAGCAGCAGATT against Tdg, the z-score is inactive: 0.246. Next, GGAAAAAGAAAAACCAGCATT against Sytl4: inactive: -0.521; GGUGUCUUAAAGCUGAAAUTT against E2f5: inactive: 2.8; “GAAGUCUGCCAAAUUAAUGTT against 6330583I20Rik”: inactive: 0.225.

As to GCAUUCAAGCAACCACGAATT against Ptdss1, the z-score is inactive: -0.153. Next, GCAACCUGCUAUUGGCACUTT against Tm6sf2: inactive: 1.5; CUAAUGUCUGUGGUCAAAUTT against Trim6: inactive: -0.535.

With “GGAAUCAAAGGAACAGAGATT against 4930435C18Rik”, the z-score was inactive: -0.79.

On to GCCGAUUUGCUAUCUCAUATT against Tnf, for which the z-score is inactive: -0.465. On to GGAUGAGGCACAGUUGUGUTT against Trim10, for which the z-score is inactive: 1.06.

On to GGUGUUUGAUGUAACUAAATT against Dgke, for which the z-score was inactive: 0.396. Next, GGACGGUAGCCAUAUUAAUTT against Spink2: inactive: -0.266; “GGAUAUCCAUAGAAUGUAATT against 2310042D19Rik”: inactive: -1.72.

Consider “GAGUGGUUUCUAAUUCGUATT against A830031A19Rik”, for which the z-score is inactive: 0.41. Then GGAAUAUGAGAAAAUGAGCTT against Ctsc, with inactive: 1.38; and GUGCAUCAUGUCGGCUUUGTT against MNCb-4137, with inactive: -0.5; and “CGGCAAUGUGACUAACAUCTT against E430025L02Rik”, with inactive: -1.06.

With “GGUUAAGUUACUAACCCAGTT against 4931406C07Rik”, the z-score is inactive: 0.632. On to GGUGGCAUAUACUUUGCUUTT against Cklfsf2a, for which the z-score was inactive: 0.693.

CGUAGAAGAGUACAUGAUUTT against Pdcd10: the z-score was inactive: -0.822. For “GGAGUGUUCUAGGACUAAGTT against D630003M21”, the z-score was inactive: 0.794.

For the sequence GGACAAAUCAGUUCUGCGUTT against Car13, the z-score was inactive: 0.63. Then GGAAAUGCGACGAGUAUAUTT against Slc38a1, with inactive: -1.52. Next, GGUAAGUGAACUAUCUAAGTT against Mlstd1: inactive: -0.136; GGAUGAGCAUAAAAGUCCUTT against Atf7ip: inactive: -0.659. Then CGGUUUGCCAAAGUACACATT against Exosc1, with inactive: -1.73. Take “CCCUAAGUAAUAGAAGUGGTT against 5330414O08Rik”: the z-score is inactive: -1.29. Next, GCCAGGAGUACUGUAUAUATT against Spint1: inactive: -0.505. In the case of GGAUGUGAUAACUUUUCUATT against Csf2rb2, the z-score was inactive: 1.18. Then GCAGGUAUGAUGAAGGUUCTT against Recql5, with inactive: -1.08; and GGCAGUGACCCUAGUUUAUTT against Lhx1, with inactive: -0.0013; and GCUGGACUUCUGUGCUUCUTT against Olfr787, with inactive: 0.35.

In the case of GGACAUAAGAGAAUGGUCATT against Lpp, the z-score is inactive: 1.63.

For the sequence GCCCAAGUAUUUUAUUUCATT against Asb2, the z-score is inactive: 0.0367. In the case of GGUUGAGUUGGAUGACCUUTT against Lsm10, the z-score was inactive: -0.417.

Take GUUUUGUUUCAGAGCAGAATT against Olfr900: the z-score is inactive: -0.277. Next, CGGAGGUGGCUAUAAAAAUTT against Sik2: inactive: 0.391; “CCGUGUUGUCUGAAAAAUATT against 1110006G06Rik”: inactive: -0.404; GCGAAGAGUGAUUGAUCCATT against Myh1: inactive: -0.591. Next, GGUAGAAGAGUCUGAUCAUTT against Sfrp1: inactive: -2.25. In the case of “CCUUCUAAAUACUGAUUUGTT against 9430041C03Rik”, the z-score was inactive: -0.163. Next, GGGCGAGUUGAAGAAUUUCTT against AA545217: inactive: 0.584. Next, CGAAAGAUCUAAAUCAGAATT against Map3k4: inactive: 0.605. Regarding “GGCAUUGUGGAUUUCGAGCTT against 1700021K02Rik”, the z-score is inactive: -0.398. Next, CCUUCAUCAUUACUCUUCUTT against Olfr780: inactive: 0.12; GGCCACUUGACACUUGGUUTT against Pcdha4: inactive: -1.09. In the case of GGACGAACUGAAGCCCUUATT against Rai2, the z-score is inactive: -1.19. With GGUCAUCGAGGCUGACUUGTT against Slc39a3, the z-score was inactive: -2.01.

For the sequence GGAAUAUUACCAGUCGGAATT against Marveld3, the z-score was inactive: 0.596. Next, “GGGUUGAAAUCACUAUUGATT against 4933403G14Rik”: inactive: -0.763; “GCUGCAUAACUCUUACACATT against 1810017G16Rik”: inactive: 1.89; GCUGGAGUUAAUGGUCACATT against Olfr1306: inactive: -1.61. Next, GGUAGAUUAUAGCAAAAUGTT against Ik: inactive: -1.37; “GGUUCUUCGGCUUAUGUUGTT against D13Bwg1146e”: inactive: 1.1. Then “GGAAGAGGAAAUGGAAUCATT against 3010026O09Rik”, with inactive: -0.778; and GGGAGGUGUCUUUACGUCUTT against Neto1, with inactive: 0.229.

With AACAAUGAGAUCGACUUUATT against Olfr1500, the z-score is inactive: -0.695. Consider GGUCUUCUCCAAGAUCUUCTT against Cyp26b1, for which the z-score was inactive: 0.482. Then CCAGCACGCAUUUAAAUAATT against Olfr628, with inactive: -0.544. Then GCAGUAUGAGAUCUCCUUCTT against Galnt10, with inactive: -0.313; and GGGUGAUGAAGAUGGCACUTT against Olfr66, with inactive: 0.00101.

As to GCGGCCACGGGACGGCGGUTT against Hmx2, the z-score was inactive: 0.841.

In the case of GCUGUACCACAACUAGUCATT against Cdc7, the z-score was inactive: -1.47. Next, GGGACCUUGAUCAAAACCUTT against Gp5: inactive: 1.77; “GGCUGUUCUCUAGAUGAAUTT against 1810065E05Rik”: inactive: 1.96; GGAUUUCGAGAAAAUCAACTT against Kctd4: inactive: -0.472. Take GGACUUGAUUUAGUGGAAGTT against BC003993: the z-score is inactive: -2.74. Then CGAAACUGGUCUUUAUACUTT against Tigd4, with inactive: 1.

Take “GCUCAAACACGUGUCGCACTT against D130074J02Rik”: the z-score is inactive: 1.23. Then CCAUAUGCAAGGAAUCUGCTT against Adam26, with inactive: -0.415; and GGAUGAAAGUCCAACCACATT against Tulp2, with inactive: -1.09. Then GGUAAAAAACCAAGAACAATT against Ednrb, with inactive: -0.0469.

“GCCAACUCAAGCAAUCUGCTT against D130072O21Rik”: the z-score is inactive: -0.0372. Next, GGGACAACUUAGGUGCUGGTT against Slc12a9: inactive: 0.823; CCAGAACAUGUCCCUUCAATT against Rnase1: inactive: -1.14.

For GCUGUGUAUGUAUUUCAUGTT against Rnf128, the z-score was inactive: 0.332. Then GGGAGACAGUUCUGCUGAATT against Rpl13, with inactive: -3.3; and “GGUGGAAUGAUAGUGUUCATT against C230078M08Rik”, with inactive: -0.262. Then CCUAUGAGAAAUGCUGCCCTT against AY100450, with inactive: 0.0084. GGGCAAGAACUACAUCUGCTT against Wdr18: the z-score was inactive: -1.17. Then “GCAUUUUGUUGUGCUAUAGTT against 6430550H21Rik”, with inactive: -0.35; and “GGCGCAGACACUCAGUUUGTT against C530044N13Rik”, with inactive: -0.247. In the case of GAACACCCUGCCGACCAAATT against Tmsb10, the z-score is inactive: 1.47.

On to GGAUACAUAUAGGUAGAAUTT against Gpr126, for which the z-score is inactive: 1.69.

GACCACUUCCUUCUAUGCCTT against Slc35c1: the z-score was inactive: 0.324. As for GGUCUUAUUUUGAAGUGUUTT against Cybb, the z-score was inactive: -1.21. As to GGAUGUGCCCGAUAUUCCATT against Gtpbp1, the z-score was inactive: 0.655. For the sequence GCUGGAUCUUUGAAUGAGGTT against Olfr910, the z-score was inactive: -0.405.

“GGCAAGAAUGGGAUAAUACTT against D16Ertd480e”: the z-score was inactive: -0.62. Next, “GGUUCUUCCCAGAAGGAGGTT against 4732496O08Rik”: inactive: 0.861. Next, GAUACGAGGAAAUCGUUAATT against Eef1a1: inactive: -1.78. Next, CUUUGCUCUACCUUUCAGCTT against Olfr657: inactive: 0.64. Consider GAGGGUGACCGCUUCAGAATT against Scn4b, for which the z-score was inactive: 0.752.

Turning to CGAUCAACAAGAAAAAGCUTT against Lcp1, the z-score is inactive: 0.0129. Then CCAACGUGUCCUUGCUCAATT against Stk22s1, with inactive: 0.671; and “CCUGAAGAGGAUGAUAUGGTT against D330028D13Rik”, with inactive: 1.43. As for GGCAAACAACUGAAUAAGGTT against Pbsn, the z-score is inactive: 0.0819.

Consider CCUUACCUGCCCUAGCAAUTT against Lpd, for which the z-score was inactive: 0.273. Next, GGGAUGUUUUGUUUUUAACTT against Mlc1: inactive: -0.346; CCAUAUAUUAUGGACCUUATT against AI987662: inactive: -0.963; “GGAUCUAUUUGGCAGAUUUTT against 4932702K14Rik”: inactive: 0.174. For the sequence GGACCAUGGAUAUUUAGCATT against Sms, the z-score is inactive: -1.27. GCUGAAACCCUUCGUACAGTT against Prlpc3: the z-score is inactive: 0.59.
